Data published in PubChem BioAssay AID2551 (National Center for Advancing Translational Sciences (NCATS), 2010).
Out of some 310,000 compounds screened, about 17,000 (5.5%) were called active. Inconclusive results, whose numbers are uncertain, are shown with a selection of clear calls. Calls follow the shape of the dose curve; as a rule, active = well fitted inhibition curve with a large enough effect; inconclusive = small, poorly fitted or top-dose-only effect, or effect the other way; inactive = no such curve, though single readings can be large or run the other way. A potency beside an inconclusive call is a rough fit, not a confirmed value.

Protein sequences, listed by entry. Tags and fused reporters are not part of them. Lines headed by an entry give the natural chain unless they say otherwise; changes in a name come on top.
UniProt P51450: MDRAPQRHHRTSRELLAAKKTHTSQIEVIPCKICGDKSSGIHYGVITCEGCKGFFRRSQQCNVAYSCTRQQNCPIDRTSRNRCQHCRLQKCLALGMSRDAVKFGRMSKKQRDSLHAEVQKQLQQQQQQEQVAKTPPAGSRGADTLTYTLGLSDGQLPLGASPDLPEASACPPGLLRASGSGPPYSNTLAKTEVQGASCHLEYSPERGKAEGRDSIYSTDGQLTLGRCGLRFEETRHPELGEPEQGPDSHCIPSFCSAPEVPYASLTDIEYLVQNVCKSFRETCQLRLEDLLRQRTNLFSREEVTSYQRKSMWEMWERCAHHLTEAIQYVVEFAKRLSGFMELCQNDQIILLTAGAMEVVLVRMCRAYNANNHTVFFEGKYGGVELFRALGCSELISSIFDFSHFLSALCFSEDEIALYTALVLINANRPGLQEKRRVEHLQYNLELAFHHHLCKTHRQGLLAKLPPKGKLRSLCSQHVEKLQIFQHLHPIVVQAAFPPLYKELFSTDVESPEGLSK

Target: Nuclear receptor ROR-gamma (Mus musculus) (UniProt P51450)
Assay: qHTS for inhibitors of ROR gamma transcriptional activity; also: nearly all actives have a fitted effect of over 60% in size
Conditions: Drosophila S2 Gal4-RORgamma UAS-luciferase reporter, 20 h; series mostly up to 53.6 µM
Method in brief: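 Luminescence from a UAS-regulated Photinus luciferase reporter in stably transfected Drosophila Schneider cells is measured; decreased signal marks ROR gamma inhibition. Fusion expression is induced by 700 uM copper sulfate for 20 hr.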
Potency is read from the fitted curve at half-maximal effect.

| SMILES | Potency |
| --- | --- |
| Cc1cccc(NC(=O)Nc2ccc(C)cc2Br)c1 | inconclusive: 35.5 µM [inhibitor, single point] |
| CC(=O)c1cc2c(C)c(C(=O)c3ccccc3)oc2cc1O | inconclusive: 15.8 µM [inhibitor, single point] |
| N#CC1=C(SCC(=O)Nc2cccc3cccnc23)NC(=O)C(C#N)C12CCCCC2 (stereo not given) | inconclusive: 35.5 µM [activator, single point] |
| Cc1cccc(NC(=O)C2CC(=O)n3cnnc3S2)c1 (stereo not given) | inconclusive: 25.1 µM [inhibitor, single point] |
| NS(=O)(=O)c1ccc(CNC(=O)CCS(=O)(=O)Cc2ccccc2)cc1 | inconclusive: 6.31 µM [inhibitor, single point] |
| Cc1ccc(-c2nnc(N3CCN(C(=O)c4ccco4)CC3)c3ccccc23)cc1 | inactive |
| Cc1ccc(-n2c(O)c(/C=N/NC(=O)C3COc4ccccc4O3)c3ccccc3c2=O)cc1 (stereo not given) | active: 3.98 µM |
| CC1(C)Cc2c(sc(NC(=O)COc3cccc4ccccc34)c2C#N)C(C)(C)N1 | active: 8.91 µM |
| N#CC1=C(N)C(C#N)(C#N)C(c2ccc[nH]2)C2CCCC=C12 (stereo not given) | inconclusive: 35.5 µM [inhibitor, single point] |
| CC(C)c1nc2cc(C(=O)NC(c3cccnc3)C(F)(F)F)ccc2o1 (stereo not given) | inconclusive: 7.08 µM [activator, partial curve] |
| CC(=O)NC(c1ccccc1)c1c(O)ccc2ccccc12 (stereo not given) | inactive |
| CN1/C(=C/C(=O)c2cccs2)Sc2ccccc21 | inconclusive: 0.0794 µM [activator, full curve, poor fit] |
| COc1ccc(/C=N\NC(=O)C2=NNC(=O)C2C)cc1 (stereo not given) | active: 12.6 µM |
| NCCCC[C@H](NC(=O)[C@@H]1CCCN1C(=O)[C@@H](N)CCCN=C(N)N)C(=O)N1CCC[C@H]1C(=O)N[C@@H](CCC(N)=O)C(=O)N[C@@H](CCC(N)=O)C(=O)N[C@@H](Cc1ccccc1)C(=O)O | inactive |
| S=C(NCc1cccs1)NCC1CCCO1 (stereo not given) | inconclusive: 12.6 µM [inhibitor, single point] |
| COc1ccc(CNC(=O)c2c(N)n(CCCN3CCOCC3)c3nc4ccccc4nc23)cc1 | inconclusive: 22.4 µM [inhibitor, single point] |
| COc1ccc2nc(NC(=O)c3ccc(F)cc3)sc2c1 | active: 11.2 µM |
| CS(=O)(=O)c1ccc2nc(NC3(C(F)(F)F)N=C4SCCN4C3=O)sc2c1 (stereo not given) | inactive |
| COc1ccc(C(=O)NNC2=Nc3cccc4cccc2c34)cc1 | active: 0.562 µM |
| N/C(=N\OC(=O)CCC1CCCC1)c1cccc([N+](=O)[O-])c1 | inconclusive: 14.1 µM [activator, single point] |
| COc1ccc(NC(=O)/C(C#N)=C/c2c(C)nn(-c3ccc(F)cc3)c2Cl)cc1OC | inconclusive: 14.1 µM [inhibitor, single point] |
| O=C(/C=C/c1ccco1)Nc1cc(Cl)ccc1C(=O)O | inactive |
| CC(C)(C)C(=O)NCCCc1ccccc1 | inactive |
| COc1cccc(NC(=S)NNC(=O)c2ccccc2OC(F)F)c1 | inconclusive: 0.891 µM [inhibitor, full curve] |
| Nc1nnnn1/N=C/c1ccccc1OCc1ccc(Cl)cc1Cl | inconclusive: 22.4 µM [inhibitor, single point] |

| SMILES | Potency |
| --- | --- |
| c1ccc2c(c1)CC1(CCCCC1)n1nnnc1-2 | inactive |
| O=C(CN(C(=O)c1cccc([N+](=O)[O-])c1)C1CCCCC1)Nc1ccc(Cl)c([N+](=O)[O-])c1 | inconclusive: 15.8 µM [activator, single point] |
| S=C(NCCC(c1ccccc1)c1ccccc1)Nc1ccc(Cl)cc1 | active: 7.94 µM |
| CCOc1cc(C(=O)NC(C)CCc2ccccc2)cc(OCC)c1OCC (stereo not given) | inconclusive: 20 µM [inhibitor, single point] |
| CS(=O)(=O)c1cnc2c(-c3ccc(F)cc3)cnn2c1N | active: 11.2 µM |
| Cc1ccc(C2N(c3nccs3)C(=O)C3CCCN32)cc1 (stereo not given) | active: 12.6 µM |
| CC(C)(C)NC(=S)N/N=C\c1ccc(-c2ccc([N+](=O)[O-])cc2)o1 | inconclusive: 3.98 µM [inhibitor, single point] |
| CCc1ccc[n+](-c2[nH]c(=O)sc2/C=N/NC([S-])=Nc2ccccc2)c1 | inconclusive: 4.47 µM [inhibitor, partial curve, poor fit] |
| O=C(NCc1ccco1)c1ccc(Cl)c(S(=O)(=O)N2CCc3ccccc32)c1 | inconclusive: 35.5 µM [activator, single point] |
| CC(O)c1nc2cc([N+](=O)[O-])ccc2n1Cc1ccccc1 (stereo not given) | inactive |
| Cc1nn(-c2nc3ccccc3[nH]2)c(N)c1-c1ccccc1 | inconclusive: 31.6 µM [activator, single point] |
| CCC(=Nc1ccccc1OC)C1=C(O)CC(c2ccccc2)CC1=O (stereo not given) | inconclusive: 25.1 µM [inhibitor, single point] |
| O=C(Nc1ccc2c(c1)OCO2)c1c(Cl)nc2sccn12 | inconclusive: 2.82 µM [activator, full curve] |
| Cc1cc(O)c(C(C)C)cc1N=Cc1cc([N+](=O)[O-])ccc1O | active: 10 µM |
| CC1(C)C(c2ccccc2)=NC(c2ccc(F)cc2)N1O (stereo not given) | inconclusive: 11.2 µM [inhibitor, single point] |
| CC/C(O)=C(/C#N)c1nnc2n1CCCCC2 | active: 20 µM |
| CCOc1cc(/C=N/NC(N)=O)ccc1OC(=O)c1ccc(C)cc1 | inactive |
| O=C(O)c1ccc(NC(=O)c2ccc(COc3ccccc3)o2)cc1 | inconclusive: 10 µM [activator, single point] |
| COc1ccccc1CNC(=O)c1ccc(-c2ccccc2C(F)(F)F)o1 | inconclusive: 25.1 µM [activator, single point] |
| O=C(O)c1cc(N/N=C/c2ccc3c(c2)OCO3)ccc1Cl | inconclusive: 22.4 µM [inhibitor, single point] |
| COC(=O)c1cc(C(=O)OC)cc(-n2c(C)cc(C=O)c2C)c1 | inactive |
| O=C(N/N=C/c1ccccn1)c1cc(C2CC2)nc2ccccc12 | active: 10 µM |
| CC(C)C(=O)NC(=S)Nc1ccccc1F | active: 7.08 µM |
| CC(=O)c1sc(NC(=O)CCOc2ccccc2)nc1C | inconclusive: 6.31 µM [activator, partial curve] |
| Cc1ccc2nc(NC(=O)c3cc(-c4ccco4)nc4ccccc34)sc2c1 | active: 17.8 µM |

Looked up one by one from the list above (4):

| SMILES | Potency |
| --- | --- |
| Cc1nn(-c2nc3ccccc3[nH]2)c(N)c1-c1ccccc1 | inconclusive: 31.6 µM [activator, single point] |
| c1ccc2c(c1)CC1(CCCCC1)n1nnnc1-2 | inactive |
| CCC(=Nc1ccccc1OC)C1=C(O)CC(c2ccccc2)CC1=O (stereo not given) | inconclusive: 25.1 µM [inhibitor, single point] |
| CC/C(O)=C(/C#N)c1nnc2n1CCCCC2 | active: 20 µM |

The list goes on:

| SMILES | Potency |
| --- | --- |
| Cc1ccc(NC2=Nc3ccccc3CC2)cc1 | active: 11.2 µM |
| CCN(CC)S(=O)(=O)c1cc([N+](=O)[O-])ccc1NNC(=O)Nc1ccccc1 | inconclusive: 14.1 µM [activator, partial curve] |
| CC(=O)N1c2ccc(S(=O)(=O)NCCC(=O)NCc3ccc(N(C)C)cc3)cc2CC1C (stereo not given) | inactive |
| CCOc1ccc(NC(=O)CN(C)S(=O)(=O)c2ccc3c(c2)CCC(=O)N3)cc1 | inconclusive: 12.6 µM [activator, partial curve] |
| O=C1C(Cl)=C(NCCCN2CCOCC2)C(=O)N1CCc1ccccc1 | inconclusive: 14.1 µM [activator, single point] |
| COc1ccc(S(=O)(=O)Nc2cc(C(C)C)c(O)cc2C)cc1 | active: 15.8 µM |
| O=C(Nc1nccs1)c1cn(-c2ccccc2)nc1-c1ccccc1 | active: 7.08 µM |
| CC1=CC(=O)N(c2ccn(C)n2)C1=O | active: 14.1 µM |
| COc1cc(OC)cc(C(=O)NC2CCSc3ccccc32)c1 (stereo not given) | inconclusive: 35.5 µM [activator, single point] |
| C(=C\c1ccccc1)/CSc1nnc(-c2cnccn2)n1Cc1ccco1 | inconclusive: 35.5 µM [inhibitor, single point] |
| COc1ccc(C(=O)NC(=S)Nc2ccc(N3CCCC3)cc2)cc1 | active: 2 µM |
| Cc1cccc(/C=N/NC(=O)c2cc3c(s2)-c2ccccc2CC3)c1 | inactive |
| O=C(Nc1ccccc1)N(CCN1CCOCC1)Cc1cccc(Cl)c1 | inactive |
| COc1c(Cl)cc(C(=O)NCc2ccco2)cc1Cl | inconclusive: 12.6 µM [activator, single point] |
| [O-][n+]1cccc2c(Br)cc(Br)c(O)c21 | active: 0.562 µM |
| COc1ccc(C(=O)OCC(=O)N(C)C2CCS(=O)(=O)C2)cc1S(=O)(=O)N1CCCc2ccccc21 (stereo not given) | inconclusive: 31.6 µM [activator, single point] |
| CCOC(=O)c1c(C)nc(C)c2c(=O)oc3ccccc3c12 | inconclusive: 35.5 µM [activator, single point] |
| COCCNC(=S)Nc1ccc(Cl)c(Cl)c1 | active: 10 µM |
| COC(=O)C1=C(C)NC(=O)NC1c1ccc(-c2ccccc2Cl)o1 (stereo not given) | inconclusive: 4.47 µM [inhibitor, single point] |
| O=C(/C=C/c1ccc([N+](=O)[O-])cc1)/C=C/c1ccco1 | inconclusive: 35.5 µM [inhibitor, single point] |
| Cc1ccc(-c2nc(-c3ccccn3)no2)cc1Cl | active: 3.55 µM |
| N#C/C(=C\c1ccc(-c2ccccc2[N+](=O)[O-])o1)C(=O)Nc1nc(-c2cccs2)cs1 | inconclusive: 12.6 µM [activator, single point] |
| O=C(CN1C(=O)S/C(=C/c2cccnc2)C1=O)N1CCOCC1 | inconclusive: 35.5 µM [inhibitor, single point] |
| CCCCSCc1nc2ccccn2c1Br | active: 11.2 µM |
| COc1ccc2cc(C(=O)N(C)Cc3ccccc3)[nH]c2c1 | inactive |
